Results on 63 molecules are retold here after PubChem BioAssay AID445 (National Center for Advancing Translational Sciences (NCATS), 2006).

This experiment in a line: IkB Signaling. As to conditions: ABC-DLBCL IkBa-CBG/CBR dual luciferase ratio (green luciferase fused to IkBa over red control in OCI-Ly3 lymphoma cells), 4 h. Put shortly:
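Curves were fitted separately to fusion (green), unfused (red) and ratio luminescence, then classed by r2, magnitude and activity. Cells: OCI-Ly3, 4 h compound plus doxycycline at 37C; 10 uM MG-132 defined full response.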

Where [1] appears, read: measured here: control luc red channel unless noted.
The mark [2] stands for this setting: measured here: IkB-luc green channel.
[3] abbreviates: measured here: control luc red channel.

The structures appear in SMILES notation. The list shows a part of the results. Further columns of the screen follow, without active or inactive calls. Most of these compounds were active or inconclusive in the main read-out, so they are no random draw. Potencies come from curve fits of mixed quality, noted in brackets.

On to `CCOC(=O)N1CCN(C(=O)Cn2ncc3c4ccccc4n(Cc4ccc(F)cc4)c3c2=O)CC1`, for which the AC50 (usually the midpoint of the concentration-response curve, whichever way the signal moves) under setting [1] was 15.8 µM [falling, partial curve].
The same measure, in the same setting: in the case of `Cc1noc(C)c1S(=O)(=O)NCCc1csc2nc(-c3ccc(Cl)cc3)nn12` it was 39.8 µM [falling, single point]; in that of `COc1ccccc1-c1nnc(C2CCN(S(=O)(=O)c3ccc(F)c(C)c3)CC2)o1`, 15.8 µM [falling, partial curve].
Regarding `O=C(COc1ccc(F)cc1)Nc1ccc(Cl)c(-c2nc3ccccc3[nH]2)c1`, the AC50 under setting [1] was 12.6 µM [falling, partial curve].
On to `Cc1nc(-c2ccc(F)cc2)sc1CCNC(=O)c1ccc(C(C)(C)C)cc1`, for which the AC50 under setting [1] was 12.6 µM [falling, partial curve].
For the molecule `Cc1ccc(Cl)cc1NS(=O)(=O)c1ccc(N2CCCCS2(=O)=O)cc1`, the AC50 under setting [1] was 39.8 µM [falling, single point].
Consider `Cc1ccc(NC(=O)Cn2c(=O)n(Cc3ccccc3)c(=O)c3c2c2cc(C)ccc2n3C)cc1`, for which, under setting [1], the AC50 is 2.51 µM [rising, partial curve].
Consider `Cc1ccc(C(=O)NCC(c2cccnc2)N2CCc3ccccc3C2)cc1C` (stereo not given), for which, under setting [1], the AC50 was 10 µM [falling, partial curve].
On to `CCOc1ccc(N2CC(c3nc4ccccc4n3CCOc3ccccc3)CC2=O)cc1` (stereo not given), for which, under setting [1], the AC50 was 39.8 µM [falling, single point].
The same measure, in the same setting: as for `CCc1nc(NCc2ccccn2)c2oc3ccccc3c2n1`, the figure is 12.6 µM [falling, partial curve]; as for `Cc1nn(-c2ccccc2)c2sc(C(=O)Nc3cccc(Br)c3)cc12`, 39.8 µM [falling, single point].
In the case of `CCC1CCCCN1C(=O)c1cc(-c2ccc(Cl)c(Cl)c2)on1` (stereo not given), the AC50 under setting [1] is 10 µM [falling, partial curve].
As for `Cc1nnc(Sc2nc3ccccc3o2)c2ccccc12`, the AC50 by setting is: under setting [2], 31.6 µM [rising, partial curve]; under setting [3], 12.6 µM [falling, partial curve].
As for `Cc1cc(=O)n2nc(-c3ccccc3)sc2n1`, the AC50 under setting [1] is 12.6 µM [falling, partial curve].
As to `Cc1ccccc1NCc1nc2ccccc2n1CCOc1ccccc1`, under setting [1], the AC50 is 25.1 µM [falling, partial curve].
Still for that read-out and setting: in the case of `CCN1C(=O)c2ccccc2Sc2ccc(NC(=O)c3ccc(C#N)cc3)cc21` it was 25.1 µM [falling, partial curve]; in that of `Cc1ccc2nc(NC(=O)CN3CCOCC3)sc2c1`, 15.8 µM [falling, partial curve].
In the case of `Cc1nc2sc(C(c3cccs3)N3CCN(c4ccccc4)CC3)c(O)n2n1` (stereo not given), the concentration at half-maximal activity (AC50) reads like this: under setting [2], 12.6 µM [rising, partial curve]; under setting [3], 10 µM [falling, partial curve].
For `COc1ccc(C(=O)Nc2nc3c(s2)Cc2cc(OC)ccc2-3)cc1`, the AC50 under setting [1] was 3.98 µM [falling, partial curve].
Turning to `COc1ccc(NC(=O)CSc2oc(-c3ccco3)nc2S(=O)(=O)c2ccccc2)c(OC)c1`, under setting [1], the AC50 is 15.8 µM [falling, partial curve].
On to `CCOC(=O)CSc1nc2c(sc3ccccc32)c(=O)n1Cc1ccc(OC)cc1`, for which the concentration at half-maximal activity (AC50) under setting [1] is 0.2 µM [rising, full curve, poor fit].
Take `Nc1c(C(=O)c2ccccc2)sc(Nc2ccc(Cl)c(Cl)c2)c1C(=O)Nc1ccccc1`: the AC50 under setting [1] is 2 µM [falling, full curve].
`Cc1ccc2c(c1)N(C(=O)N1CCC(C(=O)NCc3ccccc3F)CC1)CC(C)O2` (stereo not given): the AC50 under setting [1] is 0.794 µM [rising, full curve].
For the molecule `Cc1cccc(NC(=O)c2sc(-n3nc(C)c(CCC(C)C)c3C)nc2C)c1`, the AC50 under setting [1] was 10 µM [falling, partial curve].
`N#Cc1ccccc1OCC(=O)N1CCN(c2ccccc2F)CC1`: the AC50 under setting [1] was 25.1 µM [falling, partial curve].
Regarding `O=C1CSC(=S)N1Cc1cccnc1`, the AC50 under setting [1] is 7.94 µM [falling, full curve].
As to `CCCCn1c(SCC(=O)N2CCN(c3ccccc3)CC2)nc2ccsc2c1=O`, the AC50 under setting [1] was 5.01 µM [falling, partial curve].
As for `COc1ccc(-c2cc(C(F)(F)F)n3nc(C(=O)N4CCCCC4)cc3n2)cc1`, the AC50 under setting [1] was 1.58 µM [rising, partial curve].
As to `CCC1CN(C(=O)N2CCC(C(=O)N3CCN(c4cc(C)ccc4C)CC3)CC2)c2ccccc2O1` (stereo not given), the AC50 under setting [1] was 0.01 µM [falling, full curve, poor fit].
As for `Cc1ccc(C(=O)NC2(C(F)(F)F)N=C(c3ccccc3)N(C3CCCCC3)C2=O)cc1` (stereo not given), under setting [1], the AC50 is 15.8 µM [falling, single point].
Turning to `Cc1cccc(C(=O)N2CCc3cc(CNS(=O)(=O)c4cccs4)ccc32)c1`, under setting [1], the AC50 was 39.8 µM [falling, single point].
Consider `CCCCCn1c(=O)c2c(nc3n2CCN3c2ccc(Br)cc2)n(C)c1=O`, for which the half-maximal activity concentration (AC50) under setting [1] is 2 µM [falling, full curve].
For the molecule `c1ccc(OCCSc2nnc3sc4ccccc4n23)cc1`, the AC50 under setting [1] was 5.01 µM [falling, partial curve].
Take `O=C(c1ccco1)N1CCCC(c2nc(-c3ccc(S(=O)(=O)NCc4ccccc4)cc3)no2)C1` (stereo not given): the AC50 under setting [1] was 6.31 µM [falling, partial curve].
In the case of `O=C(CSc1nc2c(cnn2-c2ccc(F)cc2)c(=O)[nH]1)Nc1ccccc1C(F)(F)F`, the AC50 under setting [1] was 0.251 µM [falling, full curve].
The same measure, in the same setting: in the case of `Cn1c(=O)cc(OCCCC(=O)NCc2ccc3c(c2)OCO3)c2ccccc21` it was 39.8 µM [rising, single point] [measured here: IkB-luc green channel]; in that of `COc1cccc(CNC(=O)c2cc3ccc4cccnc4c3[nH]2)c1`, 7.94 µM [falling, partial curve]; in that of `COc1ccccc1N1CCN(C(=O)c2cc3c(=O)oc4ccccc4c3s2)CC1`, 39.8 µM [falling, single point].
The same measure, in the same setting: in the case of `O=C(O)c1ccc(C2Nc3ccccc3-c3nnc(SCc4ccc(Cl)cc4)nc3O2)cc1` (stereo not given) it was 20 µM [falling, single point].
With `COc1cc(OC)c(NC(=O)N2CC=C(c3c[nH]c4ccccc34)CC2)cc1Cl`, the half-maximal activity concentration (AC50) under setting [1] was 5.01 µM [falling, partial curve].
As for `COc1cccc(C(=O)Nc2ccc(C(=O)OCc3cc(=O)n4nc(C5CC5)sc4n3)cc2)c1`, under setting [1], the AC50 is 2.51 µM [rising, full curve, poor fit].
Consider `COc1ccccc1OCc1nc(-c2cccc(C)c2)no1`, for which the AC50 under setting [1] is 12.6 µM [falling, partial curve].
For the molecule `CC1CCN(C(=O)C(C)Sc2nc(-c3ccccc3)cc(C(F)(F)F)n2)CC1` (stereo not given), the AC50 under setting [1] was 15.8 µM [falling, partial curve].
Regarding `O=C(Cn1c(=O)n2nc(-c3cccc(F)c3)nc2c2ccccc21)N1CCN(c2ccccc2F)CC1`, under setting [1], the AC50 was 0.02 µM [rising, full curve, poor fit].
For `CC(Sc1nc2c([nH]c3ccccc32)c(=O)n1-c1ccccc1)c1ccccc1` (stereo not given), the half-maximal activity concentration (AC50) under setting [1] is 25.1 µM [falling, partial curve, poor fit].
As for `CCOC(=O)c1cc2cc(-c3c(C(=O)OCC)oc4cc(O)cc(O)c4c3=O)ccc2o1`, the half-maximal activity concentration (AC50) under setting [1] was 12.6 µM [falling, partial curve].
Take `CCOC(=O)C1CCN(C(=O)c2ccc3c(c2)N=C(CC)c2cc(C)ccc2S3)CC1`: the AC50 under setting [1] was 25.1 µM [falling, partial curve].
The same measure, in the same setting: in the case of `Cc1ccc(-c2nnc(Nc3ccccc3)o2)cc1` it was 0.631 µM [falling, full curve]; in that of `Cc1ccc(-c2cc(C(=O)NC3=NCCS3)c3cc(Br)ccc3n2)o1`, 15.8 µM [falling, partial curve]; in that of `CN1CCN(C(CNC(=O)c2c(F)cccc2F)c2ccc3c(c2)OCO3)CC1` (stereo not given), 1.26 µM [rising, partial curve].
Still for that read-out and setting: in the case of `O=c1c2ccccc2n(Cc2cccc(Cl)c2)c(=O)n1Cc1ccccc1` it was 3.16 µM [falling, full curve, poor fit]; in that of `COCCCNc1nc(NCc2ccc(C)cc2)c2cnn(C)c2n1`, 20 µM [falling, single point]; in that of `COc1cccc2c1cc1c(=O)n(CC(=O)N3CCC(C)CC3)nc(C)n12`, 15.8 µM [falling, partial curve].
Take `CCOc1ccc2[nH]c(=O)c(CN(Cc3nnnn3CCc3ccccc3)CC3CCCO3)cc2c1` (stereo not given): the half-maximal activity concentration (AC50) under setting [1] was 31.6 µM [falling, single point].
For the molecule `O=c1oc2ccccc2cc1-c1nc(-c2cccs2)no1`, the AC50 under setting [1] was 0.126 µM [falling, full curve].
Consider `CCC(=O)Nc1sc2c(c1C(=O)Nc1ccc(Br)cc1)CCCCC2`, for which, under setting [1], the half-maximal activity concentration (AC50) is 2.51 µM [falling, full curve, poor fit].
Consider `COc1ccccc1-c1nc(SCC(=O)c2ccc(Cl)cc2)n[nH]1`, for which the AC50 under setting [1] was 10 µM [falling, partial curve].
Turning to `Cc1cc(C)n(-c2nc3ccccc3nc2Nc2ccc(CC(=O)O)cc2)n1`, the AC50 under setting [1] is 1.26 µM [falling, partial curve].
The same measure, in the same setting: in the case of `O=C(CN1CCN(CC(=O)c2ccc(F)cc2)CC1)Nc1ccccc1Cl` it was 5.01 µM [falling, partial curve]; in that of `COc1ccc(CCNC(=O)c2ccc(Cn3c(=O)[nH]c4cc(OC)c(OC)cc4c3=O)cc2)cc1OC`, 6.31 µM [falling, partial curve]; in that of `NC(=O)c1ccc(-n2nnnc2SCc2ccc(F)cc2)cc1`, 12.6 µM [falling, partial curve].
The same measure, in the same setting: in the case of `O=S(=O)(c1ccc2c(c1)nc(COc1ccc(Cl)cc1)n2CC1CCCO1)N1CCOCC1` (stereo not given) it was 25.1 µM [falling, partial curve]; in that of `Cc1cc2n(n1)CCC(=O)N2Cc1ccc(C(=O)Nc2cccc(C(F)(F)F)c2)cc1`, 25.1 µM [falling, partial curve, poor fit].
